# Laboratory results: the supplement of paper PMC6411743
# ± gives the standard deviation of the averaged measurements. This is one part of the list.
# Molecular target: T1, UniProt Q8NHP6 and related entries
# T1 sequence (whole entry): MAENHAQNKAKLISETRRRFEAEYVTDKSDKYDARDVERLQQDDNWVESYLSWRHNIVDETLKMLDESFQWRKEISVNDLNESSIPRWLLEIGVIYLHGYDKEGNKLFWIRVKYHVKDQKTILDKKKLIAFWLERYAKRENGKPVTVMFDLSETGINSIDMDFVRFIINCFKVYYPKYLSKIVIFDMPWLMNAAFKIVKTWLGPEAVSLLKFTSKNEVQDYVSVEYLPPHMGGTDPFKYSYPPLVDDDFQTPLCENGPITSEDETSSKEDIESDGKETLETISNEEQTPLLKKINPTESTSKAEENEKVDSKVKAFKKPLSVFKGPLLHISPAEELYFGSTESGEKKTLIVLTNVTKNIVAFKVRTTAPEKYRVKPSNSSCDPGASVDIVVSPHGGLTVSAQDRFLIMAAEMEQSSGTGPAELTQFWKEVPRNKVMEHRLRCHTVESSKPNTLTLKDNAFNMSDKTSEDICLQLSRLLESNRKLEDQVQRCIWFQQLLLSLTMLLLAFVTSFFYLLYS
# Assay: NP40-soluble protein abundance relative to vehicle (solubility fold change) (ratio); higher = more soluble protein in presence of GTP
# Procedure: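 Solubility proteome profiling in Jurkat crude lysate. Lysate was treated with Mg-GTP (0.1-10 mM) for 10 min at room temperature and 3 min at 37 °C, then solubilised with 0.8% NP40 and benzonase, followed by ultracentrifugation. Proteins were quantified by TMT10 LC-MS/MS; the value is the NP40-soluble abundance relative to the NP40-processed vehicle, from 3 independent experiments.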
compound,measurement,setting,value
Nc1nc2c(ncn2[C@@H]2O[C@H](COP(=O)(O)OP(=O)(O)OP(=O)(O)O)[C@@H](O)[C@H]2O)c(=O)[nH]1 [guanosine triphosphate],NP40-soluble protein abundance,concentration: 0.1mM,0.986 ± 0.035
same,NP40-soluble protein abundance,concentration: 0.5mM,0.9742 ± 0.0083
same,NP40-soluble protein abundance,concentration: 1mM,0.917 ± 0.035
same,NP40-soluble protein abundance,concentration: 2mM,0.944 ± 0.044
same,NP40-soluble protein abundance,concentration: 4mM,0.909 ± 0.029
same,NP40-soluble protein abundance,concentration: 6mM,0.905 ± 0.018
same,NP40-soluble protein abundance,concentration: 8mM,0.85 ± 0.041
same,NP40-soluble protein abundance,concentration: 10mM,0.876 ± 0.087

# In a second layout: entries from further up.
compound	measurement	setting	value
Nc1nc2c(ncn2[C@@H]2O[C@H](COP(=O)(O)OP(=O)(O)OP(=O)(O)O)[C@@H](O)[C@H]2O)c(=O)[nH]1 [guanosine triphosphate]	NP40-soluble protein abundance	concentration: 8mM	0.85 ± 0.041
same	NP40-soluble protein abundance	concentration: 10mM	0.876 ± 0.087
